Measurements from article PMC9394307, “Discovery of Putative Dual Inhibitor of Tubulin and EGFR by Phenotypic Approach on LASSBio-1586 Homologs” (Pharmaceuticals, 2022).

How the values were obtained:
Format in all cases: cell-based, human
H292 = experiment: MTT cell viability assay, H292; conditions: for SI Lymphocyte/ H292: 48 hours, MTT; for SI GM16000/ H292: 72 h, ratio of CC50 values
Procedure: (§1) The cytotoxic activity of compounds 3–13 was determined based on an MTT assay against different human tumor cell lines, using LASSBio-1586 (2), LASSBio-1735 (3), CA-4 (1) and pelitinib as standards (Table 2). To determine the cytotoxic selectivity index, compounds were also evaluated toward human lymphocytes (Table 3).
(§2) The target compounds were tested (0.0001–100 µM) for cytotoxic activity against selected human cancer cell lines, such as HL-60 (acute promyelocytic leukemia), MCF-7 (mammary adenocarcinoma), PC-3 (prostate adenocarcinoma), H1975 (non-small cell lung cancer—EGFR^L858R+T790M), PC-9 (non-small cell lung cancer—EGFR^L858R) H292 (mucoepidermoid pulmonary carcinoma—EGFR wild type), LoVo (colorectal adenocarcinoma—EGFRwild type) and GM16000 (lymphocyte). All the human cancer cell lines were purchased from Cell Bank of Rio de Janeiro—BCRJ. They were cultured in RPMI 1640 medium with 10% (v/v) FBS, 2 mM glutamine, at 37 °C in a humidified incubator containing 5% CO2.
(§3) The cytotoxicity of the compounds was evaluated by the MTT assay. […] For lymphocytic lines, a density of 0.3 × 10^6 cells/mL was used. Afterwards they were treated with varying concentrations of the target compounds 2–12 (0.0001–100 µM), CA-4 (1) and pelitinib at 37 °C, in triplicate. The medium was incubated with 20 μL of 5 mg/mL MTT solution for 3 h in a humidified incubator containing 5% CO2 [11].
(§4) The purple-colored formazan crystals formed in the wells were dissolved in DMSO and their absorbance was measured at 595 nm with a microplate reader (SpectraMax M5, Molecular Devices).

LoVo = experiment: MTT cell viability assay, LoVo; conditions: for SI Lymphocyte/ LoVo: 48 hours, MTT; for SI GM16000/ LoVo: 72 h, ratio of CC50 values
Procedure: as §1, §2
(§5) The cytotoxicity of the compounds was evaluated by the MTT assay. The cell lines were cultured in 96 well plates for 72 h with a density of 0.1 × 10^5 cells/mL to 0.7 × 10^5 cells/mL to adherent cell lines. For lymphocytic lines, a density of 0.3 × 10^6 cells/mL was used. Afterwards they were treated with varying concentrations of the target compounds 2–12 (0.0001–100 µM), CA-4 (1) and pelitinib at 37 °C, in triplicate. The medium was incubated with 20 μL of 5 mg/mL MTT solution for 3 h in a humidified incubator containing 5% CO2 [11].
as §4

PC-3 = experiment: MTT cell viability assay, PC-3; conditions: 72 h; ratio of CC50 values
Procedure: as §1, §2, §5, §4

H1975 = experiment: MTT cell viability assay, H1975; conditions: for SI Lymphocyte/ H1975: 48 hours, MTT; for SI GM16000/ H1975: 72 h, ratio of CC50 values
Procedure: as §1, §2, §3, §4

PC-9 = experiment: MTT cell viability assay, PC-9; conditions: for SI Lymphocyte/ PC-9: 48 hours, MTT; for SI GM16000/ PC-9: 72 h, ratio of CC50 values
Procedure: as §1, §2, §3, §4

HL-60 = experiment: MTT cell viability assay, HL-60; conditions: for SI Lymphocyte/ HL-60: 48 hours, MTT; for SI GM16000/ HL-60: 72 h, ratio of CC50 values
Procedure: as §1, §2, §3, §4

MCF-7 = experiment: MTT cell viability assay, MCF-7; conditions: for SI GM16000/ MCF-7: 72 h, ratio of CC50 values
Procedure: as §1, §2, §5, §4

Row | SMILES | SI Lymphocyte/ H292 (H292) | SI GM16000/ H292 (H292) | SI Lymphocyte/ LoVo (LoVo) | SI GM16000/ LoVo (LoVo) | SI GM16000/ PC-3 (PC-3) | SI Lymphocyte/ H1975 (H1975) | SI GM16000/ H1975 (H1975) | SI Lymphocyte/ PC-9 (PC-9) | SI GM16000/ PC-9 (PC-9) | SI Lymphocyte/ HL-60 (HL-60) | SI GM16000/ HL-60 (HL-60) | SI GM16000/ MCF-7 (MCF-7) | times more potent on MCF-7 than CA-4 (1) (MCF-7; MTT 72 h, ratio of CC50) [times] | times more potent on MCF-7 than LASSBio-1586 (MCF-7; MTT 72 h, ratio of CC50) [times] | SI GM16000/ LoVo (LoVo; listed as 2)
1 | COc1cc(C(=O)N(C)/N=C/c2ccccc2)cc(OC)c1OC [LASSBio-1735 (3), (E)-N’-benzylidene-3,4,5-trimethoxy-N-methylbenzohydrazide] | 5.0 | 0.5 | 1.6 | 0.9 | 0.6 | 7.95 | 1.7 | 0.6 | 1.4 | 0.09 | 3.4 | 0.5 | 31 | 27 | 
2 | CCCN(/N=C/c1ccccc1)C(=O)c1cc(OC)c(OC)c(OC)c1 [LASSBio-2118 (5), (E)-N’-benzylidene-3,4,5-trimethoxy-N-propylbenzohydrazide] | 11.0 | 0.2 | 2.7 | 27.2 | 1.9 | 2.2 | 1.1 | 7.6 | 6.2 | 1.4 | 2.8 | 5.9 |  |  | 
3 | CCOc1cc2ncc(C#N)c(Nc3ccc(F)c(Cl)c3)c2cc1NC(=O)/C=C/CN(C)C [Pelitinib, reference compound] | 2.0 | 35.3 | 0.5 | 74.3 | 1.1 | 0.3 | 5.4 | 2.8 | 46.5 | 0.3 | 1.3 | 0.7 |  |  | 
4 | COc1cc(C(=O)N/N=C/c2ccccc2)cc(OC)c1OC [LASSBio-1586 (2), (E)-N’-benzylidene-3,4,5-trimetoxybenzohydrazide] | 0.4 | 1.0 | 0.5 | 39.0 | 0.9 | 0.45 | 1.0 | 1.0 | 2.6 | 0.3 | 0.7 | 0.2 |  |  | 39
5 | CCN(/N=C/c1ccccc1)C(=O)c1cc(OC)c(OC)c(OC)c1 [LASSBio-2071 (4), (E)-N’-benzylidene-N-ethyl-3,4,5-trimethoxybenzohydrazide] | 0.2 | 2.0 | 0.02 | 17.0 | 3.0 |  | 1.0 | 0.06 | 13.3 |  | 22.2 | 4.1 |  |  | 
6 | C=CCN(/N=C/c1ccccc1)C(=O)c1cc(OC)c(OC)c(OC)c1 [LASSBio-2069 (8), (E)-N-allyl-N’-benzylidene-3,4,5-trimethoxybenzohydrazide] | 7.7 | 1.0 | 1.5 | 2.8 | 1.8 | 0.72 | 0.2 | 4.3 | 2.1 | 2.3 | 0.6 | 0.5 |  |  | 
7 | CCOC(=O)CN(/N=C/c1ccccc1)C(=O)c1cc(OC)c(OC)c(OC)c1 [LASSBio-2074 (11), Ethyl (E)-N-(benzylideneamino)-N-(3,4,5-trimethoxybenzoyl)glycinate] | 4.25 | 5.6 | 1.0 | 39.5 | 3.0 | 0.52 | 3.5 | 1.8 | 20.8 | 0.44 | 33.3 | 4.8 |  |  | 
8 | C#CCN(/N=C/c1ccccc1)C(=O)c1cc(OC)c(OC)c(OC)c1 [LASSBio-2072 (9), (E)-N’-benzylidene-3,4,5-trimethoxy-N-(prop-2-yn-1-yl)benzohydrazide] | 0.2 | 0.2 | 0.03 | 1.5 | 0.3 | 0.02 | 0.2 | 0.07 | 1.3 | 0.02 | 4.0 | 0.3 |  |  | 
9 | COc1cc(C(=O)N(CCN2CCOCC2)/N=C/c2ccccc2)cc(OC)c1OC [LASSBio-2122 (12), (E)-N’-benzylidene-3,4,5-trimethoxy-N-(2-morpholinoethyl)benzohydrazide] | 2.3 | 2.0 | 0.9 | 13.4 | 2.3 | 0.14 | 2.3 | 0.6 | 6.5 | 0.18 | 1.4 | 1.4 |  |  | 
10 | COc1cc(C(=O)N(Cc2ccccc2)/N=C/c2ccccc2)cc(OC)c1OC [LASSBio-2070 (10), (E)-N-benzyl-N’-benzylidene-3,4,5-trimethoxybenzohydrazide] |  | 1.2 | 1.2 | 5.0 | 2.9 | 3.5 | 0.4 |  | 3.1 | 0.62 | 6.0 | 0.6 |  |  | 
11 | COc1ccc(/C=C\c2cc(OC)c(OC)c(OC)c2)cc1O [CA-4 (1), Combretastatin A-4, reference compound] | 0.2 | 4.5 | 0.1 | 1.6 | 0.7 | 0.3 | 1.8 | 0.6 | 6.4 |  | 0.8 | 0.007 |  |  | 
12 | CCCCN(/N=C/c1ccccc1)C(=O)c1cc(OC)c(OC)c(OC)c1 [LASSBio-2121 (6), (E)-N’-benzylidene-N-butyl-3,4,5-trimethoxybenzohydrazide] | 5.0 | 0.1 | 0.54 | 2.0 | 1.4 | 0.64 | 0.3 | 3.35 | 10.0 | 0.42 | 0.4 | 1.9 |  |  | 
